These are yes or no findings as the source states them, for the method shown. In cells and extracts the contact can be indirect. Here binding means that the protein was enriched with, or labelled near, the bait; the list need not be complete.

Protein sequences, listed by entry. Tags and fused reporters are not part of them.
UniProt Q5TEA3: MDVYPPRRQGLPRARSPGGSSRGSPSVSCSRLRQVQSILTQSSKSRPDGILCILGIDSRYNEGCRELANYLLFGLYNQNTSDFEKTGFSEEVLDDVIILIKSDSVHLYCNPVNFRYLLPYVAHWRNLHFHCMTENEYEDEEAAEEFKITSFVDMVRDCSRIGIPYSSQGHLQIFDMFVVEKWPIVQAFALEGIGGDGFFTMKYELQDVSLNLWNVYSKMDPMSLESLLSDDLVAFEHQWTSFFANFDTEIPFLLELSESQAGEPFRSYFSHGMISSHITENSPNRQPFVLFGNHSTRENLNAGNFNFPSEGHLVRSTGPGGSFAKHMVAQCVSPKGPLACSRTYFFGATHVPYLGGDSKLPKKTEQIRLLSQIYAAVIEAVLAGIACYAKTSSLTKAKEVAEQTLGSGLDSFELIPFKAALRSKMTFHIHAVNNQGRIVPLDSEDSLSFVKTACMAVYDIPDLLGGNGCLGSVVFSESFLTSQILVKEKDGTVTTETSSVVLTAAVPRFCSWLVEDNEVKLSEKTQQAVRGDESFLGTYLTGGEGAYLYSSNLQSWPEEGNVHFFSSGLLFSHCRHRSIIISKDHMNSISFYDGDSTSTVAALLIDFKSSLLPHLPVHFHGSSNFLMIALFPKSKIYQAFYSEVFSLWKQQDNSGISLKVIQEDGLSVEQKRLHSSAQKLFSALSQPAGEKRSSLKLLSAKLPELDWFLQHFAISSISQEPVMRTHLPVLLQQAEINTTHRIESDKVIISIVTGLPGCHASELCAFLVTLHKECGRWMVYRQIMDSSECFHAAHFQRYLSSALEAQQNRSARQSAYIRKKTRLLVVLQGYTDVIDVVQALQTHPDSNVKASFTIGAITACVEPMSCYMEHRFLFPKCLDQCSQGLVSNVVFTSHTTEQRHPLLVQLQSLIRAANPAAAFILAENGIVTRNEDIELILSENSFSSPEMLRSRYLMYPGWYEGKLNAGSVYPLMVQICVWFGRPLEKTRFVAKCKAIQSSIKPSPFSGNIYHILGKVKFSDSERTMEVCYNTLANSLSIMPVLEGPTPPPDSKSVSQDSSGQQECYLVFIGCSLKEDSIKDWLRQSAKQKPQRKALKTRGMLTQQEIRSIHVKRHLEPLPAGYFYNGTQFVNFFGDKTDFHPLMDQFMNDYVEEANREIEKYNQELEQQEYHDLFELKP

Test [1] has as its target Tetrahymena thermophila Arl3 Q70L (GTP mimicking variant) (Tetrahymena thermophila) (UniProt Q229S0). In words: affinity purification with mass spectrometry.
Test [2] deals with DNAAF9 (human Shulin), endogenous in human airway epithelial cells (human (endogenous in HAECs)) (UniProt Q5TEA3). In words: affinity purification with mass spectrometry.

B1: Shulin, endogenous in Tetrahymena cells undergoing ciliary regeneration (protein, UniProt Q22YU3 1-1200)
chain: MFNFFSSANINQNIPKYSVNDFVFRLKKIEKIVVKEGLDGFLLINGVDSRENTEYVKLTNWLFLGNSGLEIEENEYLNQIYSDMIVLIKKGTTHIFIDPEALNSLQTLIYSIPNVDVFCPTEKQYEDKDEMELLKMAFFLRVMKPTKKVGILLGQKDKGKINSIEKWPLIQSYGLEELGVGFFSMNHEVVDLTLRLNAVYKNYDKFFVSKLIYVVAKRLTGHFNSAAGQLGDMKMHKRNLATESQLTEIFRDTYEIEEISKWVQIRGVNAALPKPRVLFGKNTSADCSKEPSVAPLKDLKYSETFHSFHATFETFDLRTCLRAARTYFLAKGVKEERNLITLNDDEGVPQGYELNIDENQQYKDQDFLANLYLSIIIGFNEVMQLITKDYKNMTEEFIQDYIFQKVSKVYAGFQIPESEITLDKIQIILKAYNSFGEEVKIDFKDTISFKLTPYFFMVRIEQKNIKSQILNNTVLGSLVFAESFILQEGCYLLLTKEIPYFDLWNCQNDYSEKIEKMKKRILWEPLGKQISDELPKNRIFVQTGRKSNYGFDIPIMQASYYMHELGLRIETQRLGWFILFFKEMKEIQITQKMNHTWLIFKVDSNITFNSISKDTIALEFTGDALEQSFFKIKNYFEENQIKYEYQVDIPAIFQESQIAKKQILNQQSQGQKLITMNSIQNEQFFISYIESKQLMILNQMKDLKLSAYKNLYEQMQISQAITPVENHIGVILVNGSYCSGKRKFAENLIRFGSDNNLRLHLYKFDLNEMSELTEKSYLSGLLKFASEKKIQNTDVIVASVPHFINTKILIDYFSKSEKISNAFYIRTIATKININNIYSNFNKNPVNNVFTYGVEGYSQFLLLDTYNNYDADVNALNKTLSGVLPGAKIYKIMNNILNPALAKDILTSITFISEQNNLNRLKYSVQYDLLTSNGPSSVVFIPFKLPILREKIRDLIYKKILQNGNQTLVDTIEAEQKIAEFKELNKNSKDPLMIEIIKLKEKIEIQNAQTSDQAIKIDYVKGILRYDSKLKEGLEEITITPNYFIERTVKGVDAKEFTEELNGVSFKNVKYTGITNSIINDMGFVFAGKNLNKEKLLELLYKLVKPLNKQKLRQRKDLTEEEIVDIQFRNRGEGLENGEFYDGQFWRNIQGLILPHHPKKDEFIEEYLKQEEVRINQINEQLQQEWETWKQVYDKIHLDK
Consider B1, for which the binding entry in test [1] is “binds”.

B2: LC3/NME9 (protein, UniProt Q86XW9 1-330)
chain: MGSRKKEIALQVNISTQELWEEMLSSKGLTVVDVYQGWCGPCKPVVSLFQKMRIEVGLDLLHFALAEADRLDVLEKYRGKCEPTFLFYAGGELVAVVRGANAPLLQKTILDQLEAEKKVLAEGRERKVIKDEALSDEDECVSHGKNNGEDEDMVSSERTCTLAIIKPDAVAHGKTDEIIMKIQEAGFEILTNEERTMTEAEVRLFYQHKAGEEAFEKLVHHMCSGPSHLLILTRTEGFEDVVTTWRTVMGPRDPNVARREQPESLRAQYGTEMPFNAVHGSRDREDADRELALLFPSLKFSDKDTEAPQGGEAEATAGPTEALCFPEDVD
Regarding B2, the binding result in test [2] is reported as “binds”.

B3: DNAI1 (protein, UniProt Q9UI46 1-699)
chain: MIPASAKAPHKQPHKQSISIGRGTRKRDEDSGTEVGEGTDEWAQSKATVRPPDQLELTDAELKEEFTRILTANNPHAPQNIVRYSFKEGTYKPIGFVNQLAVHYTQVGNLIPKDSDEGRRQHYRDELVAGSQESVKVISETGNLEEDEEPKELETEPGSQTDVPAAGAAEKVTEEELMTPKQPKERKLTNQFNFSERASQTYNNPVRDRECQTEPPPRTNFSATANQWEIYDAYVEELEKQEKTKEKEKAKTPVAKKSGKMAMRKLTSMESQTDDLIKLSQAAKIMERMVNQNTYDDIAQDFKYYDDAADEYRDQVGTLLPLWKFQNDKAKRLSVTALCWNPKYRDLFAVGYGSYDFMKQSRGMLLLYSLKNPSFPEYMFSSNSGVMCLDIHVDHPYLVAVGHYDGNVAIYNLKKPHSQPSFCSSAKSGKHSDPVWQVKWQKDDMDQNLNFFSVSSDGRIVSWTLVKRKLVHIDVIKLKVEGSTTEVPEGLQLHPVGCGTAFDFHKEIDYMFLVGTEEGKIYKCSKSYSSQFLDTYDAHNMSVDTVSWNPYHTKVFMSCSSDWTVKIWDHTIKTPMFIYDLNSAVGDVAWAPYSSTVFAAVTTDGKAHIFDLAINKYEAICNQPVAAKKNRLTHVQFNLIHPIIIVGDDRGHIISLKLSPNLRKMPKEKKGQEVQKGPAVEIAKLDKLLNLVREVKIKT
As for B3, in test [2], the binding entry was “binds”.

Source of the values: doi:10.1101/2024.08.15.608058.
